Drawing on the supplement of paper PMC12873370, this text covers cell viability for 14 molecules.

For assay [1], the system named is MEPP (mouse ovarian epithelium Trp53/Pten KO). In words: cell viability relative to untreated (fraction); higher = less growth inhibition. Particulars: 5 µM; 3 days.
Assay [2] deals with PREPP (mouse prostate epithelium Trp53/Pten KO). Described as above. As to conditions: 5 µM; 3 days.

The other results are listed elsewhere or left out. Single values are uncertain, as repeats are few or missing.

`Cn1cc(CNCC2CCN(c3ncc(C(=O)NO)cn3)CC2)c2ccccc21`: the cell viability amounted to 0.509 in assay [1] and 0.751 in assay [2].
On the same counts, the results for `C/C(=N\NC(=O)c1cccc(S(=O)(=O)N2CCOCC2)c1)c1cc(Cl)ccc1O` are 0.55 and 0.739.
On to `COC(=O)c1ccc(N2CCN(C)CC2)c(NC(=O)c2cccc(OC)c2)c1`, for which the values for the cell viability in assay [1] and in assay [2] were 1.01 and 0.868, respectively.
For the molecule `O=C(O)CNC(=O)c1nc(Cl)c2ccccc2c1O`, the cell viability in assay [1] amounted to 1; in assay [2], 1.04.
For the molecule `CCN(CC)Cc1ccc2cc(COC(=O)Nc3ccc(C(=O)NO)cc3)ccc2c1`, the cell viability in assay [1] was found to be 0.826; in assay [2], 0.554.
On to `CCc1cccc(CC)c1NC(=O)N1Cc2[nH]nc(NC(=O)c3ccc(N4CCN(C)CC4)cc3)c2C1`, for which the cell viability in assay [1] was 0.938; in assay [2], 0.729.
Regarding `CCN(c1cc(-c2ccc(CN3CCOCC3)cc2)cc(C(=O)NCc2c(C)cc(C)[nH]c2=O)c1C)C1CCOCC1`, the cell viability in assay [1] is 0.902; in assay [2], 0.925.
On to `CCCCc1nc2cc(/C=C/C(=O)NO)ccc2n1CCN(CC)CC`, for which the cell viability in assay [1] came out at 0.641; in assay [2] it was 0.639.
As for `CN1CCN(c2cccc(Nc3nc4c(-c5ccc(S(C)(=O)=O)cc5)cccn4n3)c2)CC1`, the cell viability was 0.937 in assay [1] and 0.549 in assay [2].
For the molecule `C/C=C1\NC(=O)[C@H]2CSSCC/C=C/[C@H](CC(=O)N[C@H](C(C)C)C(=O)N2)OC(=O)[C@H](C(C)C)NC1=O`, the cell viability is 0.252 in assay [1] and 0.834 in assay [2].
In the case of `CC(=O)N1c2ccc(-c3ccc(C(=O)O)cc3)cc2[C@H](Nc2ccc(Cl)cc2)C[C@@H]1C`, the cell viability in assay [1] was 0.87; in assay [2], 0.634.
`CC(C)[C@H](C(=O)Nc1ccc(C(=O)NO)cc1)c1ccccc1`: the figures for the cell viability in assay [1] and in assay [2] were 1.06 and 0.828, respectively.
Take `CCCCNNC(=O)c1ccc(Br)cc1`: the cell viability was found to be 0.974 in assay [1] and 0.714 in assay [2].
With `COc1cc2ncnc(Nc3ccc(O)c(Br)c3)c2cc1OC`, the cell viability in assay [1] turned out to be 0.791; in assay [2] it was 0.687.
